Screen size: about 1,300 compounds; about 40 (3%) were called active.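 The calls were made as follows: active = inhibition above that campaign's mean inhibition plus 3 SD (cut at about 0.46% in these data); inactive = the rest.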 The entries are a selection whose mix differs from that of the whole data set.
target: Beta-lactamase TEM (Escherichia coli) (UniProt P62593); assay: TEM-1 serine beta-lactamase inhibitors, counter-screen for VIM-2 inhibitor project, biochemical, epi-absorbance, HTS (AID 1866); conditions: Purified TEM-1, nitrocefin hydrolysis, epi-absorbance fluorescence; at 5.6 µM; stronger effect = higher value;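 also: 0% = TEM-1 with DMSO and 100% = TEM-1 with 100 µM potassium clavulanate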

Protein sequences, listed by entry. Tags and fused reporters are not part of them.
UniProt P62593, whole entry, looked up: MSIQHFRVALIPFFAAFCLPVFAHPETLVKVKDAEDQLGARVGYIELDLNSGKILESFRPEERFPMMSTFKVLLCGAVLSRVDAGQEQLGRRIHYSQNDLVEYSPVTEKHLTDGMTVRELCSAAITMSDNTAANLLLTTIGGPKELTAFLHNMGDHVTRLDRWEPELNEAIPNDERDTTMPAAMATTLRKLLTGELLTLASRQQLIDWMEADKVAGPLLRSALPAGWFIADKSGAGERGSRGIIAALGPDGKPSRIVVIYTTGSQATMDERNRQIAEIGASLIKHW

| Compound | inhibition |
| --- | --- |
| Cc1cc(=O)oc2c(C)c(OCC(=O)N3CCN(Cc4ccc5c(c4)OCO5)CC3)ccc12 | inactive: -8.14% |
| Cc1cc(OCc2cc(C(=O)O)oc2C)c2c3c(c(=O)oc2c1)CCCC3 | inactive: -10.4% |

Reference: PubChem BioAssay AID1866 (The Scripps Research Institute Molecular Screening Center, 2009)
